Experimental findings from publication doi:10.1101/2020.01.31.928408 are described below.

What all share (assay): co-IP
In experiment [1] the target is HA-tagged Gli2 ΔA1 (P1-6A) (mouse).
The target of experiment [2] is HA-tagged Gli2 ΔA2 (P1-6A) (mouse).
Experiment [3] has as its target HA-tagged Gli2 ΔN (P1-6A) (mouse).

No constants are given. Whether binding was seen depends on the method and setting. In cells and extracts the contact can be indirect. Binding can be weak; no strength is given. For some of these results: Sequences can lack the tags named with a protein.

B1: Xpo7 (overexpressed in HEK293T) (protein, UniProt Q9EPK7 1-1087)
chain: MADHVQSLAQLENLCKQLYETTDTTTRLQAEKALVEFTNSPDCLSKCQLLLERGSSSYSQLLAATCLTKLVSRTNNPLPLEQRIDIRNYVLNYLATRPKLATFVTQALIQLYARITKLGWFDCQKDDYVFRNAITDVTRFLQDSVEYCIIGVTILSQLTNEINQADTTHPLTKHRKIASSFRDSSLFDIFTLSCNLLKQASGKNLNLNDESQHGLLMQLLKLTHNCLNFDFIGTSTDESSDDLCTVQIPTSWRSAFLDSSTLQLFFDLYHSIPPSFSPLVLSCLVQIASVRRSLFNNAERAKFLSHLVDGVKRILENPQSLSDPNNYHEFCRLLARLKSNYQLGELVKVENYPDVIRLIANFTVTSLQHWEFAPNSVHYLLSLWQRLAASVPYVKATEPHMLETYTPEVTKAYITSRLESVHIILRDGLEDPLEDTGLVQQQLDQLSTIGRCEYEKTCALLVQLFDQSAQSYQELLQSASASPMDIAVQEGRLTWLVYIIGAVIGGRVSFASTDEQDAMDGELVCRVLQLMNLTDSRLAQAGNEKLELAMLSFFEQFRKIYIGDQVQKSSKLYRRLSEVLGLNDETMVLSVFIGKVITNLKYWGRCEPITSKTLQLLNDLSIGYSSVRKLVKLSAVQFMLNNHTSEHFSFLGINNQSNLTDMRCRTTFYTALGRLLMVDLGEDEDQYEQFMLPLTAAFEAVAQMFSTNSFNEQEAKRTLVGLVRDLRGIAFAFNAKTSFMMLFEWIYPSYMPILQRAIELWYHDPACTTPVLKLMAELVHNRSQRLQFDVSSPNGILLFRETSKMITMYGNRILTLGEVPKDQVYALKLKGISICFSMLKAALSGSYVNFGVFRLYGDDALENALQTFIKLLLSIPHSDLLDYPKLSQSYYSLLEVLTQDHMNFIASLEPHVIMYILSSISEGLTALDTMVCTGCCSCLDHIVTYLFKQLSRSTKKRTTPLNRESDCFLHIMQQHPAMIQQMLSTVLNIIIFEDCRNQWSMSRPLLGLILLNEKYFSDLRNSIVNSQPPEKQQAMHLCFENLMEGIERNLLTKNRDRFTQNLSAFRREVNDSMKNSTYGVNSNDMMS
With B1, the binding entry in experiment [1] is recorded as “binds weakly”; in experiment [2] it was “binds”; in experiment [3], “binds weakly”.

B2: FLAG-SuFu (protein, UniProt Q9Z0P7 1-484)
chain: MAELRPSVAPGPAAPPASGPSAPPAFASLFPPGLHAIYGECRRLYPDQPNPLQVTAIVKYWLGGPDPLDYVSMYRNMGSPSANIPEHWHYISFGLSDLYGDNRVHEFTGTDGPSGFGFELTFRLKRETGESAPPTWPAELMQGLARYVFQSENTFCSGDHVSWHSPLDNSESRIQHMLLTEDPQMQPVRTPFGVVTFLQIVGVCTEELHSAQQWNGQGILELLRTVPIAGGPWLITDMRRGETIFEIDPHLQERVDKGIETDGSNLSGVSAKCAWDDLSRPPEDEEDSRSICLGTQPRRLSGKDTEQIRETLRRGLEINSKPVLPPINSQRQNGLTHDRAPSRKDSLGSDSSTAIIPHELIRTRQLESVHLKFNQESGALIPLCLRGRLLHGRHFTYKSITGDMAITFVSTGVEGAFATEEHPYAAHGPWLQILLTEEFVEKMLEDLEDLTSPEEFKLPKEYSWPEKKLKVSILPDVVFDSPLH
For the molecule B2, the binding entry in experiment [1] is “binds”.
